Experimental data: the supplement of paper PMC12764529
± gives the half width of the 95% confidence interval. For many entries, trypsin and chymotrypsin gave values far apart.

How the values were obtained:
[1] = folding stability dG unfold (combined trypsin and chymotrypsin); higher = more stable
Method: (§1)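 Folding stability of de novo designed mini-proteins (<80 aa, no Cys; designed by TrROS, TrMRF, ProteinMPNN and the joint model) was measured by cDNA display proteolysis with trypsin and chymotrypsin. Each protease was used at 11 concentrations in a threefold dilution series plus a no-protease condition. K50 was inferred by Bayesian fitting of sequencing counts, and dG unfold was derived against a sequence-predicted unfolded-state K50 (Tsuboyama et al. method). Sequences shown include variable-length N-terminal GS-type padding (SAGGSAGG...) inside a display construct carrying a PA tag. Rows were kept only if the AF2 dimer inter-PAE was >15, to exclude likely homo-oligomers.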

[2] = folding stability dG unfold from chymotrypsin proteolysis; higher = more stable
Method: as §1

Sequence	folding stability dG unfold [1] [kcal/mol]	folding stability dG unfold [2] [kcal/mol]
SAGGSAGGSAGGMTVAITDAEGNVTVTPLSSVSAELLEALKKAGATVTTLPDGSLLITRASAGGSAGGSAGG [r7_496_JUSTAS]	1.89 ± 0.11	2.45 ± 0.044
SAGGSMTVSTAPDGTLKVYDPATGKLNPLPVPPVPLVVSRSVQPDKGVVITTTTTPSGEVTVSTTALSAGGS [r16_453_JUSTAS]	-0.159 ± 0.075	0.394 ± 0.06
SAGGSAGGSAGMTRTTELPEGVLTVTTEEPEEDVVLVTEEEVVDGEVVRVTPRRLPPGALSAGGSAGGSAGG [r11_167_JUSTAS]	1.11 ± 0.098	1.48 ± 0.026
SAGGSAGGSAETIATASTSPPSSTVTSTLPGSGATVTTTVAPDGTPTVTTTDATTPTTVAASAGGSAGGSAG [r3_458_JUSTAS]	1.22 ± 0.043	1.57 ± 0.028
SAGGPGIPVKTLNILVEFPPEETLEQARERVEELAEELRKKFPELLSVDVDVEKVGDRYIANIKVEIPLSAG [r5_446_TrMRF]	3.99 ± 0.22	3.35 ± 0.12
SAGGSAGGMLTLSFSSPEDAAKARELLAAAGARWEEDPATGTLRVDLDEATREALKQLPGVTLESAGGSAGG [r6_726_JUSTAS]	3.4 ± 0.085	3.72 ± 0.058
SAGGMTLTPDEYLEILLGLPTGIERRVFLPGGDLEAALAATGLPPERVPVREIRALPLSPEEVAARLASAGG [r13_850_JUSTAS]	0.781 ± 0.089	1.44 ± 0.047
SAGGSAGGSAGPKPGDYVLRPATLTLELGPALVRDPDGNLFEVDRLELQVTVNYLVPAGLSAGGSAGGSAGG [r11_907_TrMRF]	2.52 ± 0.1	3.04 ± 0.04
SAGGTVTADLLLPGDRTRLRVVALEPAPETPPNGPRRLNLRARIEVIDPRTGAPRTYTWDAVSGTVSEESAG [r5_212_TrMRF]	0.84 ± 0.059	1.65 ± 0.084
SSLTLTELLSESSETDPAGTTTRTLVELAEEPDEPVVVTTTTTTTTDAAGNSTTTTTTTVVPASAPGIAASA [r9_300_JUSTAS]	0.834 ± 0.074	1.19 ± 0.05
SAGGSAGGSAGGSTVREVRPEVTREPLPADPSLPEVERTTTTTLVDDEWTTTTTTTPVASAGGSAGGSAGGS [r10_1010_JUSTAS]	0.775 ± 0.054	1.28 ± 0.02
SAGGSKPEKIKVVSVEVFPDGLIKVKVKTESGYEATALIVKLPGDKYLIFLTIPANGKPFVFELPASAGGSA [r2_361_TrMRF]	2.54 ± 0.072	2.61 ± 0.031
SAGKIEIHYNPDGMFRIKIEYKDGNKPHEWTIPIPPGQPPEKIKDQLEELAENHGLEDVDVKIEPVPPSAGG [r19_31_TrROS]	0.601 ± 0.38	1.11 ± 0.22
SAGGSASSITSTSLSLEETVPGDPDVVVVTRTVTTTTPLPDGSPATHTTTSSTKVVTSPEELAAASSAGGSA [r15_1019_JUSTAS]	0.708 ± 0.058	1.2 ± 0.012
SAGGSKKKIYKIKIKIEVINEETGEKKTVEIEIEAESLEEALAAIAKALLPEGQTVKIVDIEIEEVSAGGSA [r2_320_TrROS_Hall]	3.73 ± 0.085	3.89 ± 0.079
SAGGSAGGSAGGSMLVEPRLVETLVEEGPEEPVPVLVETTVTVTVLPDGSLVVSTETRPASAGGSAGGSAGG [r11_607_JUSTAS]	0.988 ± 0.14	1.45 ± 0.078

Sequence	folding stability dG unfold [1] [kcal/mol]	folding stability dG unfold [2] [kcal/mol]
SAGGSAGGSAGGGAGGATSTTTSTTHLPNGTVTTTTTTTTTNADGTVTTTTTTTTTTVAASAGGSAGGSAGG [r7_125_JUSTAS]	1.23 ± 0.059	1.54 ± 0.025
SAGGSAGGSAGGGLAEVELEFPVLGLRLRLVYRLEGDVPTILDAELELEPLPPLEPNLDKSAGGSAGGSAGG [r7_276_TrMRF]	2.99 ± 0.23	3.74 ± 0.093
SAGGSASVSYDPTPGPTRRTTTLLETEEVGPNLKRVKTKVTLFPSDGVPTTSTVTELDLVPPPELPSAGGSA [r15_1035_JUSTAS]	0.128 ± 0.11	0.527 ± 0.057
SAGGSAGGSRVLVVVELENTGEVLVREFGSLEDAVAAIPSDAPVRRIEVFPILPPLSPEALARSAGGSAGGS [r12_851_TrMRF]	0.547 ± 0.13	1.01 ± 0.086
SAGGSMQPRYKVETTETTETYPERGLKTKTTTTTVTLPDGSTVTTTTTTTYDPSNGTPVATTTTTDPAASAG [r5_819_JUSTAS]	1.1 ± 0.11	1.81 ± 0.039
SAGGSAGGSAGGMVLTLSVDPATGLVTVTLPDGTVVTLSPEELARTPVVVQPLPGPPDTASAGGSAGGSAGG [r7_99_JUSTAS]	1.97 ± 0.11	2.42 ± 0.056
SAGGSAGGSAGSSALELAREIARRLGLPEIDLVVEDTRDGEVTTTVLRLPVEPPPLPELLSAGGSAGGSAGG [r17_40_JUSTAS]	0.483 ± 0.087	1 ± 0.13
SADIELEIFRLDDKIVIVMEQKQDDPDGKERPYYHVQTFELDPGNGKLQPKVYPFKSPADADDALKDGLSAG [r14_500_TrROS]	0.596 ± 0.25	1.05 ± 0.24
SAGGSAGGSAGGAKPVTFTFPDGTKAVSVEETPTSVVLYDPGPGALYVLDKETKTITPASAGGSAGGSAGGS [r10_289_TrMRF]	-0.72 ± 0.34	-0.512 ± 0.29
SAGGMTPAVTETTIELPASDPEAAIAALRAAGWELLARERGPDGSVRMVFAAPTRRVTVDFVGPAAASAGGS [r16_170_JUSTAS]	1.71 ± 0.032	2.03 ± 0.039
SAGGAPTVVSYDPETGSVHVAFGTNPETGEYTVVIVTPDGRPILVPGPVPSLEEAVERAREALAEAGSAGGS [r16_319_TrMRF]	1.41 ± 0.13	1.89 ± 0.026
SAGAKYYPVENLKIKEKVKEGNKLKIEIEYPEGGSVSTNPDGSMTYYDPKTGGYVYFDSKGNLVEVKPSSAG [r5_348_JUSTAS]	1.05 ± 0.081	1.48 ± 0.037
SAGGSAGGSRRPELRLLELPIPLPPGGSAEDVARALDAEPGFEVVEILEVDPATGRVRLLVRRSAGGSAGGS [r12_712_TrMRF]	1.32 ± 0.059	1.92 ± 0.095
SVTDRVVTDPAGSTWTEDATTGVATRTDAVTGTTTTTQVTPVPGGVLVQTTTGGTPSLRTVPPDAALVTGSA [r9_239_JUSTAS]	1.01 ± 0.096	1.52 ± 0.022
SAGGSAGGSAGGSGKTTVETVPGTGNVAGTTTTTTLPDGSLTSTTTTTAAVPAVDPAAASAGGSAGGSAGGS [r4_178_JUSTAS]	1.03 ± 0.036	1.5 ± 0.045
SAGGSANLPPGQPKIITITIPLGEEVRNPDGEPMTPEDIADNFQERFGNIEVEKSPNGWLEVTFWLSAGGSA [r15_645_TrROS]	1.18 ± 0.19	0.637 ± 0.15

Part of the list above, set out differently:
Sequence,folding stability dG unfold [1] [kcal/mol],folding stability dG unfold [2] [kcal/mol]
SAGGSAGGSAGGGAGGATSTTTSTTHLPNGTVTTTTTTTTTNADGTVTTTTTTTTTTVAASAGGSAGGSAGG [r7_125_JUSTAS],1.23 ± 0.059,1.54 ± 0.025
SAGGSAGGSAGGGLAEVELEFPVLGLRLRLVYRLEGDVPTILDAELELEPLPPLEPNLDKSAGGSAGGSAGG [r7_276_TrMRF],2.99 ± 0.23,3.74 ± 0.093
